Experimental data: the supplement of paper PMC6331611
± gives the standard deviation of the averaged measurements. Over roughly 1,600 compounds, “normalized intracellular growth (luminescence, IQM-normalized) in RAW264.7 macrophages” has its median near 1; the lowest 2% begin near 0.43. Some of the results follow.

Test system: Salmonella enterica serovar Typhimurium SL1344
Test: normalized intracellular growth (luminescence, IQM-normalized) in RAW264.7 macrophages (fraction of plate interquartile mean); higher = more bacterial growth (less inhibition)
Conditions: 10 µM

Row | SMILES | normalized intracellular growth (time point: T3 (3 h)) | normalized intracellular growth (time point: Tfinal (~6 h))
1 | COCCCOc1ccnc(C[S+]([O-])c2nc3ccccc3[nH]2)c1C (centres undefined) | 1.03 ± 0.12 | 1.01 ± 0.16
2 | O=C(O)Cc1cc(I)c(Oc2ccc(O)c(I)c2)c(I)c1 | 1.01 ± 0.017 | 1.18 ± 0.038
3 | COCCCOc1cc(C[C@@H](C[C@H](N)[C@@H](O)C[C@H](C(=O)NCC(C)(C)C(N)=O)C(C)C)C(C)C)ccc1OC | 0.926 ± 0.018 | 0.809 ± 0.29
4 | C#C[C@]1(OC(C)=O)CC[C@H]2[C@@H]3CCC4=CC(=O)CC[C@@H]4[C@H]3CC[C@@]21C | 1.03 ± 0.046 | 0.972 ± 0.043
5 | CCCCOC(=O)c1ccc(O)cc1 | 1.01 ± 0.029 | 0.989 ± 0.013
6 | CCCc1nc2c(C)cc(-c3nc4ccccc4n3C)cc2n1Cc1ccc(-c2ccccc2C(=O)O)cc1 | 0.999 ± 0.11 | 0.597 ± 0.38
7 | N=C(N)N1CCc2ccccc2C1 | 0.963 ± 0.068 | 1.16 ± 0.083
8 | CC(=O)/N=c1/sc(S(N)(=O)=O)nn1C | 1.09 ± 0.044 | 0.892 ± 0.37
9 | CC1=CC(=O)c2ccccc2C1=O | 1.22 ± 0.017 | 1.21 ± 0.035
10 | CCCCC1C(=O)N(c2ccccc2)N(c2ccccc2)C1=O | 0.986 ± 0.043 | 1.08 ± 0.04
11 | O=C(Nc1ccccc1)OCC(CN1CCCCC1)OC(=O)Nc1ccccc1 (centres undefined) | 1.02 ± 0.084 | 1.24 ± 0.32
12 | N=C(N)c1ccc(N=NNc2ccc(C(=N)N)cc2)cc1 | 0.994 ± 0.014 | 0.922 ± 0.023
13 | CCCC(=O)Nc1ccc(OCC(O)CNC(C)C)c(C(C)=O)c1 (centres undefined) | 0.948 ± 0.099 | 1 ± 0.1
14 | C[C@@H]1O[C@@H](OC[C@H]2O[C@@H](Oc3c(-c4ccc(O)c(O)c4)oc4cc(O)cc(O)c4c3=O)[C@H](O)[C@@H](O)[C@@H]2O)[C@H](O)[C@H](O)[C@H]1O | 0.989 ± 0.045 | 0.977 ± 0.15
15 | CO/N=C(\C(=O)N[C@@H]1C(=O)N2C(C(=O)O)=C(CSC(=O)c3ccco3)CS[C@H]12)c1csc(N)n1 | 1 ± 0.029 | 0.0233 ± 0.0029
16 | Cc1oc(=O)oc1CN1CCN(c2cc3c(cc2F)c(=O)c(C(=O)O)c2n3C(C)S2)CC1 (centres undefined) | 1.14 ± 0.069 | 0.0187 ± 0.0013
17 | C=COCC(F)(F)F | 0.944 ± 0.035 | 0.991 ± 0.069
18 | CC(=O)OCC(=O)[C@@]12OC3(CCCC3)O[C@@H]1C[C@H]1[C@@H]3CCC4=CC(=O)C=C[C@]4(C)[C@@]3(F)[C@@H](O)C[C@@]12C | 0.993 ± 0.075 | 0.85 ± 0.32
19 | N[C@@H](CC(=O)N1CCn2c(nnc2C(F)(F)F)C1)Cc1cc(F)c(F)cc1F | 1.03 ± 0.014 | 1.08 ± 0.09
20 | C#CC1(O)CC[C@H]2[C@@H]3CCC4=CC(=O)CC[C@@H]4[C@H]3CC[C@@]21CC (some centres undefined) | 0.987 ± 0.056 | 0.966 ± 0.07
21 | Cc1c(C)c2c(c(C)c1O)CCC(C)(CCCC(C)CCCC(C)CCCC(C)C)O2 (stereo not drawn) [alpha-TOCHOPHEROL] | 0.999 ± 0.14 | 1.1 ± 0.13
22 | CC(=O)O[C@]1(C(C)=O)CC[C@H]2[C@@H]3C=C(C)C4=CC(=O)CC[C@]4(C)[C@H]3CC[C@@]21C | 0.828 ± 0.025 | 0.97 ± 0.073

Ordered by length of the SMILES (high to low): three of the compounds above.
Row | SMILES | normalized intracellular growth (time point: T3 (3 h)) | normalized intracellular growth (time point: Tfinal (~6 h))
21 | Cc1c(C)c2c(c(C)c1O)CCC(C)(CCCC(C)CCCC(C)CCCC(C)C)O2 (stereo not drawn) [alpha-TOCHOPHEROL] | 0.999 ± 0.14 | 1.1 ± 0.13
13 | CCCC(=O)Nc1ccc(OCC(O)CNC(C)C)c(C(C)=O)c1 (centres undefined) | 0.948 ± 0.099 | 1 ± 0.1
5 | CCCCOC(=O)c1ccc(O)cc1 | 1.01 ± 0.029 | 0.989 ± 0.013
